The source of these data is US20260022195A1.

Results are given in words; binding and its absence hold for the method and conditions named. Some results given as binding are weak or reduced against the parent protein; the word gives no strength.

The target in this test is T1, human C1s (active form) (human) (UniProt P09871).
T1 sequence 1: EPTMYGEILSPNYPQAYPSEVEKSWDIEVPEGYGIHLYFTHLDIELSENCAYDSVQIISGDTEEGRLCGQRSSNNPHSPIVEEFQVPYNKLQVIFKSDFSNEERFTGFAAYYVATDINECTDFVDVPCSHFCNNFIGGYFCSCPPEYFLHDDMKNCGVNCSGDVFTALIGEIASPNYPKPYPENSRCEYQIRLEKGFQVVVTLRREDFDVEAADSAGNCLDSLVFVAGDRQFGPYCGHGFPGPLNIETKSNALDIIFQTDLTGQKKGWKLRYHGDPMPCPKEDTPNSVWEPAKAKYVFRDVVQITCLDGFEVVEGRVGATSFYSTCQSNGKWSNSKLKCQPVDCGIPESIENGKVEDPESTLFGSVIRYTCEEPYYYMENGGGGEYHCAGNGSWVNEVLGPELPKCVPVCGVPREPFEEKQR
T1 sequence 2: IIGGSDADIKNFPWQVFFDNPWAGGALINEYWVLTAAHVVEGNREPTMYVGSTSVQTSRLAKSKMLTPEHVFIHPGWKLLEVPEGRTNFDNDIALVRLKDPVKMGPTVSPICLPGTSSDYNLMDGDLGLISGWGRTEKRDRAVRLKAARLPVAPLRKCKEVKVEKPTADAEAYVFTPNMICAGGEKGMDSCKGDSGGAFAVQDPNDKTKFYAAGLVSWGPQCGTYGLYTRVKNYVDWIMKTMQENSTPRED
Put plainly: SPR, IgG captured on anti-Fc surface, C1s or proC1s_RQ as analyte.

B1: MAB3 (antibody, V domains shown)
VH: EVQLVESGGGVVRPGGSLRLSCAASGFTFDDYGMSWVRQAPGKGLEWVSGINWEGGSTGYADSVKGRFTISRDNAKNSLYLQMNSLRAEDTALYYCARDEQLGGNYYYYYYMDVWGKGTTVTVSS
VL: DIQMTQSPSSLSASVGDRVTITCRASQGIRNDLGWYQQKPGKAPKRLIYTASNLQSGVPSRFSGSGSGTEFTLTISSLQPEDFATYYCLQYNSYPLTFGGGTKVEIK
Regarding B1, the binding result was “binds”.
